Experimental data published in patent US20150037829A1 (MIT, published 2015).
Results are given in words; binding and its absence hold for the method and conditions named. Some binding calls cover weakened binding; strength is not graded here.

Sequences of proteins named here, by UniProt entry; tags and fusion partners are left off. A change or cut given only in a name is not applied to a line headed by its entry.
UniProt P48534: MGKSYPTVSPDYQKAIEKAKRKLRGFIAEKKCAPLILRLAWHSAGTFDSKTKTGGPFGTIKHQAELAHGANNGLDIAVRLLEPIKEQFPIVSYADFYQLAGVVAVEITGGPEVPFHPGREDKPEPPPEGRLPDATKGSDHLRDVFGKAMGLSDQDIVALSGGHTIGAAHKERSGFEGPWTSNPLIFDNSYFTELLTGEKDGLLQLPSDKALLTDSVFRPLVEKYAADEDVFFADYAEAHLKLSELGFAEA

Legend:
Assay in all cases: gel filtration chromatography, self-association
[1] = target: APX single mutant E112K, N-terminally His6-tagged (Pisum sativum (pea)) (UniProt P48534)
[2] = target: APX single mutant D229K, N-terminally His6-tagged (Pisum sativum (pea)) (UniProt P48534)
[3] = target: APX single mutant E228K, N-terminally His6-tagged (Pisum sativum (pea)) (UniProt P48534)
[4] = target: APX single mutant A28K, N-terminally His6-tagged (Pisum sativum (pea)) (UniProt P48534)
[5] = target: APX single mutant K14D, N-terminally His6-tagged (Pisum sativum (pea)) (UniProt P48534)

## APX single mutant E112K, N-terminally His6-tagged (from UniProt P48534 2-250) (enzyme)
[1]
  binding: binds

## APX single mutant D229K, N-terminally His6-tagged (from UniProt P48534 2-250) (enzyme)
[2]
  binding: binds

## APX single mutant E228K, N-terminally His6-tagged (from UniProt P48534 2-250) (enzyme)
[3]
  binding: binds

## APX single mutant A28K, N-terminally His6-tagged (from UniProt P48534 2-250) (enzyme)
[4]
  binding: binds

## APX single mutant K14D, N-terminally His6-tagged (from UniProt P48534 2-250) (enzyme)
[5]
  binding: binds
